Structures can show the parent of a compound that is named as a salt. The list shows a part of the results. Hit calls seldom repeat between salt and free forms of one compound.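 Kinases were expressed as nanoluciferase fusions in K562 cells and luminescence was read every 4 h between 2 and 18 h as percent of control, DMSO set to 100% and a positive control to 0%. A time point counts as decreased when the signal drops significantly (2 sigma). The hit call is the authors' own, does not follow from the count of time points alone, and its rule is not shown.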
Key:
Assay in all cases: kinase-Nluc reporter destabilization hit call (1 = scored as downregulated) (binary); higher = compound decreases kinase abundance
Settings in all cases: K562; 2-18 h
IRAK3 = IRAK3 (UniProt Q9Y616)
JAK1 = JAK1 (UniProt P23458)
LCK = LCK (UniProt P06239)
LIMK1 = LIMK1 (UniProt P53667)
LIMK2 = LIMK2 (UniProt P53671)
LMTK2 = LMTK2 (UniProt Q8IWU2)
LYN = LYN (UniProt P07948)
MAP2K1 = MAP2K1 (UniProt Q02750)
MAP2K2 = MAP2K2 (UniProt P36507)
MAP4K2 = MAP4K2 (UniProt Q12851)

By UniProt entry, the sequences of proteins in these tests, tags left out. Where a name states a change or a piece, a line headed by the entry shows the natural chain unless it says otherwise.
UniProt Q9Y616: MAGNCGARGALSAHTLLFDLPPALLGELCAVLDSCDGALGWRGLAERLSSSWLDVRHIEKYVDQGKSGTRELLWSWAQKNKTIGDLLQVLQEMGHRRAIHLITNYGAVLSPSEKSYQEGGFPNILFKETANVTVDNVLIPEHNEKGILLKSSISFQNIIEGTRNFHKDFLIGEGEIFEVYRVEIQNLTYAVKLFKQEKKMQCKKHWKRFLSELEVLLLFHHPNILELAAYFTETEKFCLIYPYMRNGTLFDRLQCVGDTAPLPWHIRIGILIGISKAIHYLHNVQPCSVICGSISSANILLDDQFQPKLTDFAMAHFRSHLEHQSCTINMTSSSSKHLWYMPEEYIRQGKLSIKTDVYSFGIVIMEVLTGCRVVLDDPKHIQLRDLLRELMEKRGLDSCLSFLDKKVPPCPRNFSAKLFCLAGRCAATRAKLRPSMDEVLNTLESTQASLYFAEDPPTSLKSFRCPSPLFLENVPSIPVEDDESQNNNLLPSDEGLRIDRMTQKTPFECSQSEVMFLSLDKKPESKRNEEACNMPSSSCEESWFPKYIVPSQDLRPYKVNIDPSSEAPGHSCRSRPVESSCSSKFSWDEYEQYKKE
UniProt P23458: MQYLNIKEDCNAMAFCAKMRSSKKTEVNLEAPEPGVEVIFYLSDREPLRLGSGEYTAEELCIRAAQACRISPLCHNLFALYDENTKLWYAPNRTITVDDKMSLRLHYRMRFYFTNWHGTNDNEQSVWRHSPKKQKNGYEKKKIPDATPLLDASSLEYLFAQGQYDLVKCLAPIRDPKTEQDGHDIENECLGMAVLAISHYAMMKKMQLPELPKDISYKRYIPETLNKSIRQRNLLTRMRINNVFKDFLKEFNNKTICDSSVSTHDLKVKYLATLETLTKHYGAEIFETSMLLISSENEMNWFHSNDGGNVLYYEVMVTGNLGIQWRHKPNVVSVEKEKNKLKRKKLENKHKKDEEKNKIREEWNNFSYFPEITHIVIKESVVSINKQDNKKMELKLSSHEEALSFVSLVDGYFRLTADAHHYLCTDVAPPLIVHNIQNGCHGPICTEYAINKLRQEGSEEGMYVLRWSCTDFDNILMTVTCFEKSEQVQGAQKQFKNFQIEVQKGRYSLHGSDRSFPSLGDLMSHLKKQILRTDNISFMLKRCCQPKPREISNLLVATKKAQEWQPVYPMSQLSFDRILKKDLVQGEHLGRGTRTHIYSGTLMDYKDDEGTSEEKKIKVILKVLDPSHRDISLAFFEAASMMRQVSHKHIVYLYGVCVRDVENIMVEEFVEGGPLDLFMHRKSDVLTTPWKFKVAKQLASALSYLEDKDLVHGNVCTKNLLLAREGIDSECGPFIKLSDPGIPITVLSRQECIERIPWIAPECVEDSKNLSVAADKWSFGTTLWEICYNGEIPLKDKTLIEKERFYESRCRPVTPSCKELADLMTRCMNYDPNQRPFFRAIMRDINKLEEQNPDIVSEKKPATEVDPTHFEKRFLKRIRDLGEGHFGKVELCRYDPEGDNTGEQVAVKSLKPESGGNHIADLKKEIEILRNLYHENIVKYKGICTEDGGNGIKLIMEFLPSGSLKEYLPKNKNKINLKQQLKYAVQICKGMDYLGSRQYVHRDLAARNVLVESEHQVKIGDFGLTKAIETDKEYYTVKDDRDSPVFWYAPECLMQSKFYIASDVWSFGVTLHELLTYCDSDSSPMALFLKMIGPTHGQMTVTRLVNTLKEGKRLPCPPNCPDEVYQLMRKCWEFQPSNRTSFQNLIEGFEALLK
UniProt P06239: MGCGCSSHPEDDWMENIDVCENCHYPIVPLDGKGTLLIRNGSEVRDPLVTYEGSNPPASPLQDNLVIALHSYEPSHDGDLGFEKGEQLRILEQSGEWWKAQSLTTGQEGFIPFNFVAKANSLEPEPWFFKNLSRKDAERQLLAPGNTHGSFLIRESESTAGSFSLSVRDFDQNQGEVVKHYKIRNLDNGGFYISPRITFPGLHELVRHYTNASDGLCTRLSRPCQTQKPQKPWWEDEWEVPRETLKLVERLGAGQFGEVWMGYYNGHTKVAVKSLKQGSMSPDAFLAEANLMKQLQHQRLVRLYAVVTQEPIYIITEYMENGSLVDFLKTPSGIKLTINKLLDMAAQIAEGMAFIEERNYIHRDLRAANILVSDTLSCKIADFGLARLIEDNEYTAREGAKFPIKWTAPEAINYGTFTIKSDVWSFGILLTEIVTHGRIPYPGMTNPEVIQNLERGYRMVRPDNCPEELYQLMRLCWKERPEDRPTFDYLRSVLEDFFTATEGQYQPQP
UniProt P53667: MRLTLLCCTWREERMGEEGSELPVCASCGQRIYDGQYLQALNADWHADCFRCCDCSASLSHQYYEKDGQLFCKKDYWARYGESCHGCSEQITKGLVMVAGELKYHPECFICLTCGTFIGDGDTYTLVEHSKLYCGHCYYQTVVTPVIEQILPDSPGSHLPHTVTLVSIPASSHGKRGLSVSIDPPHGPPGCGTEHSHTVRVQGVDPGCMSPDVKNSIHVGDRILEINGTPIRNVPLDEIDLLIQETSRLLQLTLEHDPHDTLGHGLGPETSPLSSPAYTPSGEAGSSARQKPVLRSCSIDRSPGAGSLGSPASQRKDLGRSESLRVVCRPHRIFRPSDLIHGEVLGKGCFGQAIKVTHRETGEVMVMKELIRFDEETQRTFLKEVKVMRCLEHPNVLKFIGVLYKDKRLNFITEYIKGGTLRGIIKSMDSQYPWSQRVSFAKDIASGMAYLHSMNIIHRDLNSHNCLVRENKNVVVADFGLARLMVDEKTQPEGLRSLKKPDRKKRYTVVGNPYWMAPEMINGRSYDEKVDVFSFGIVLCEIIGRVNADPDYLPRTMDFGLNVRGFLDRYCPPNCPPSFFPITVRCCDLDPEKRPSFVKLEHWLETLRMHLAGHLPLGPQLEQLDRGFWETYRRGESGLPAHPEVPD
UniProt P53671: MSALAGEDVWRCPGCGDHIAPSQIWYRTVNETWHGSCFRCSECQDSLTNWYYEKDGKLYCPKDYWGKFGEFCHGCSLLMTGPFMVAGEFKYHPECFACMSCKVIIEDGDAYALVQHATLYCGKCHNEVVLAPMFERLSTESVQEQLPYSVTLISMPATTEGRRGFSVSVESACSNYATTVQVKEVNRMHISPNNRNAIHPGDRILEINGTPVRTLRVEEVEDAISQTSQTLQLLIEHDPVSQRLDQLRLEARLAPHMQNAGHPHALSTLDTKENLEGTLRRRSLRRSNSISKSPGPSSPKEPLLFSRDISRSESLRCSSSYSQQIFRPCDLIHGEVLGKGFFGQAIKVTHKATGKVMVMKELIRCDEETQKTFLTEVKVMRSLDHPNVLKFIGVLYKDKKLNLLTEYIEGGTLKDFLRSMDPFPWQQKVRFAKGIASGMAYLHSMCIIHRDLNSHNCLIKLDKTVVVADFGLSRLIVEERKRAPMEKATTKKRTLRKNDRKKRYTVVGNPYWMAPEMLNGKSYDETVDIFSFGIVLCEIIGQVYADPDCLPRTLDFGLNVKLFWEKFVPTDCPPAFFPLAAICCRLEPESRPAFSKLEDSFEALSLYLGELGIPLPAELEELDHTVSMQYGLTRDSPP
UniProt Q8IWU2: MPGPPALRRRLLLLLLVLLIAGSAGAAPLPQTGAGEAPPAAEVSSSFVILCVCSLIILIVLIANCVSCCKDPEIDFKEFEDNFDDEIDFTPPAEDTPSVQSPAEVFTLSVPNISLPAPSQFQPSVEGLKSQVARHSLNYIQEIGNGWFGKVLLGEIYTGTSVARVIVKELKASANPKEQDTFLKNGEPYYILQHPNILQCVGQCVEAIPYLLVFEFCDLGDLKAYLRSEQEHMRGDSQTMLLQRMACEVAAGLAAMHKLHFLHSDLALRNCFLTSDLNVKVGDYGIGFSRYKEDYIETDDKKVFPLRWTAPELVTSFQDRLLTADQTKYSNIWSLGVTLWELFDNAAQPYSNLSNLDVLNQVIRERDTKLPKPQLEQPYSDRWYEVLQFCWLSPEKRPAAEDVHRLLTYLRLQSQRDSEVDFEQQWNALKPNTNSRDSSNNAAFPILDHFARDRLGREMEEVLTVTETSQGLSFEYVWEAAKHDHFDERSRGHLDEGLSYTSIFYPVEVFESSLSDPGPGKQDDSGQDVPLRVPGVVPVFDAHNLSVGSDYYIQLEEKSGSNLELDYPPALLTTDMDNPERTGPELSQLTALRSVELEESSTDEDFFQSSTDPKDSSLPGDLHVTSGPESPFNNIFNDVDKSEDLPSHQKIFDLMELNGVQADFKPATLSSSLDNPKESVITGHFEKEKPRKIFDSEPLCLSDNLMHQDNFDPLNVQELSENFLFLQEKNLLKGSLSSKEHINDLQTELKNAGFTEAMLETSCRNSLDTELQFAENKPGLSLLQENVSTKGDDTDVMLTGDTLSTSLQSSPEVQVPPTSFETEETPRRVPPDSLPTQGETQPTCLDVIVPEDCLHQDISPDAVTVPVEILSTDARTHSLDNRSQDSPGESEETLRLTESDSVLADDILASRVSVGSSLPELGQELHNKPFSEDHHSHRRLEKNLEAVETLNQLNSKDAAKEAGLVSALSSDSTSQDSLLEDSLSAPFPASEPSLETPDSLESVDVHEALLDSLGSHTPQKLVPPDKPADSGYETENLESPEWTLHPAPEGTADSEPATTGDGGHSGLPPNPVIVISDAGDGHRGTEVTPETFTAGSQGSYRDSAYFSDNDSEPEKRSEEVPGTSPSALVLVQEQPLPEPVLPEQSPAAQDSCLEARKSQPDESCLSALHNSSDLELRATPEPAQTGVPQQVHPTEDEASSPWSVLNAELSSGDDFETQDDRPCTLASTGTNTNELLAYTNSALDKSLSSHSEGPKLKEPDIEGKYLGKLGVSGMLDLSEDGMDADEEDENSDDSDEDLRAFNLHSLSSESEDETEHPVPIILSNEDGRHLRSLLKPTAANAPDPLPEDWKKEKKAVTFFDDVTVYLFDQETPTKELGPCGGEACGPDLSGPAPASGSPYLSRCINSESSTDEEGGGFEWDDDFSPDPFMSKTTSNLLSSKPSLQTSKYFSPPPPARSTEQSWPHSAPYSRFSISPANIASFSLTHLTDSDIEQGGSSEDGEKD
UniProt P07948: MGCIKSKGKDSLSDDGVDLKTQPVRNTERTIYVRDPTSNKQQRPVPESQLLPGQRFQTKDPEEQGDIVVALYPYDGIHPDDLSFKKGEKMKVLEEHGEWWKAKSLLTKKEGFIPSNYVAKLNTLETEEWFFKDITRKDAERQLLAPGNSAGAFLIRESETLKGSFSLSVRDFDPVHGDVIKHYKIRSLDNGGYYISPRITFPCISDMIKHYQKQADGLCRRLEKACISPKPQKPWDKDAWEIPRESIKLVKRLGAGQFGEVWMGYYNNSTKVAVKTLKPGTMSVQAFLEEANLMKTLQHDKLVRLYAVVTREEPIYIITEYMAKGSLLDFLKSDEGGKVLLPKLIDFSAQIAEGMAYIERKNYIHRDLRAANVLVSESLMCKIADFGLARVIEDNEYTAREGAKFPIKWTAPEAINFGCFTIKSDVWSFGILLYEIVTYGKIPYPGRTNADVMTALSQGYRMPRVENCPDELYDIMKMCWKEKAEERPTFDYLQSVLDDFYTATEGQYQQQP
UniProt Q12851: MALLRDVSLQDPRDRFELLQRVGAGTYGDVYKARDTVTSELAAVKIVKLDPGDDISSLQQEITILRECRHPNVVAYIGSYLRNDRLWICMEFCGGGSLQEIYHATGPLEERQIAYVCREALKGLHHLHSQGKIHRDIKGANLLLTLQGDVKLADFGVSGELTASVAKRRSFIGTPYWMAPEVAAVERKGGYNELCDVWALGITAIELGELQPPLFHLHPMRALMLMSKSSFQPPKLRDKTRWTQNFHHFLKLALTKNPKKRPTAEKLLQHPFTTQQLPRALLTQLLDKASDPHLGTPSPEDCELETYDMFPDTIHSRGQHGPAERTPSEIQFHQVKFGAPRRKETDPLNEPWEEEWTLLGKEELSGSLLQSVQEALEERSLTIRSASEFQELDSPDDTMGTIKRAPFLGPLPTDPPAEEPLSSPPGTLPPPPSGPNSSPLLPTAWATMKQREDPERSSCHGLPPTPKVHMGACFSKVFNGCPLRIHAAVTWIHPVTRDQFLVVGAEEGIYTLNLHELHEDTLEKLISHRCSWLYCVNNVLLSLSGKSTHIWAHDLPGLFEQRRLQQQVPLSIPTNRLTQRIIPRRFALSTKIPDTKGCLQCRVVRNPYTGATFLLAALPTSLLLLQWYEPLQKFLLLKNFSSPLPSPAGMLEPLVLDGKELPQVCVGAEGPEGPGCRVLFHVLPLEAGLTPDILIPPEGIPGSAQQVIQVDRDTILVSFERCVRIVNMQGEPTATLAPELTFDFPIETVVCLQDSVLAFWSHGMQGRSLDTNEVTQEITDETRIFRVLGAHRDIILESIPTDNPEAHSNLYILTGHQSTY

Measured: kinase-Nluc reporter destabilization hit call

CC(=O)N1CCN(c2cc(-c3cc(C(F)(F)F)c4c(N)ncnn34)ccc2C#N)C(=O)C1(C)C (10 µM)
inactive: IRAK3 = 0 | JAK1 = 0 | LCK 0 | LIMK1 = 0 | LIMK2 = 0 | LMTK2 = 0 | LYN 0 | MAP2K1 = 0 | MAP2K2 = 0 | MAP4K2 = 0

CC(C)CC1(O)CCN(C(=O)c2ccc(NS(=O)(=O)c3cccc4nccnc34)cc2)CC1 (10 µM)
inactive: IRAK3 = 0 | JAK1 = 0 | LCK 0 | LIMK1 = 0 | LIMK2 = 0 | LMTK2 = 0 | LYN 0 | MAP2K1 = 0 | MAP2K2 = 0 | MAP4K2 = 0

O=C(O)CCc1ccc(O)c(O)c1 [Dihydrocaffeic acid] (10 µM)
inactive: IRAK3 = 0 | JAK1 = 0 | LCK 0 | LIMK1 = 0 | LIMK2 = 0 | LMTK2 = 0 | LYN 0 | MAP2K1 = 0 | MAP2K2 = 0 | MAP4K2 = 0

Cc1ccc(S(=O)(=O)Nc2ccccc2C=Nc2ccccc2NS(=O)(=O)c2ccc(C)cc2)cc1 (10 µM)
inactive: IRAK3 = 0 | JAK1 = 0 | LCK 0 | LIMK1 = 0 | LIMK2 = 0 | LMTK2 = 0 | LYN 0 | MAP2K1 = 0 | MAP2K2 = 0 | MAP4K2 = 0

Nc1ncc(-c2cccc(N3CCNCC3)c2)cc1C(=O)Nc1ccncc1 [PKC-iota inhibitor 1] (10 µM)
inactive: IRAK3 = 0 | JAK1 = 0 | LCK 0 | LIMK1 = 0 | LIMK2 = 0 | LMTK2 = 0 | LYN 0 | MAP2K1 = 0 | MAP2K2 = 0 | MAP4K2 = 0

O=C(NCCCNc1nc(Nc2cccc(NC(=O)N3CCCC3)c2)ncc1I)c1cccs1 (2.5 µM)
inactive: IRAK3 = 0 | JAK1 = 0 | LCK 0 | LIMK1 = 0 | LIMK2 = 0 | LMTK2 = 0 | LYN 0 | MAP2K1 = 0 | MAP2K2 = 0 | MAP4K2 = 0

CCOc1cc(C(=O)N2CCC(N3CCN(C)CC3)CC2)ccc1Nc1ncc2c(n1)N(C1CCCC1)c1ccccc1C(=O)N2C (10 µM)
inactive: IRAK3 = 0 | JAK1 = 0 | LCK 0 | LIMK1 = 0 | LIMK2 = 0 | LMTK2 = 0 | LYN 0 | MAP2K1 = 0 | MAP2K2 = 0 | MAP4K2 = 0

O=C(O)c1cc(O)ccc1O [2,5-Dihydroxybenzoic acid] (10 µM)
inactive: IRAK3 = 0 | JAK1 = 0 | LCK 0 | LIMK1 = 0 | LIMK2 = 0 | LMTK2 = 0 | LYN 0 | MAP2K1 = 0 | MAP2K2 = 0 | MAP4K2 = 0

O=C(Nc1cc(Oc2cc(F)c(NC(=O)C3(C(=O)Nc4ccc(F)cc4)CC3)cc2F)ccn1)C1CC1 [Altiratinib] (10 µM)
inactive: IRAK3 = 0 | JAK1 = 0 | LCK 0 | LIMK1 = 0 | LIMK2 = 0 | LMTK2 = 0 | LYN 0 | MAP2K1 = 0 | MAP2K2 = 0 | MAP4K2 = 0

N#CC(c1ccnc(NCCc2cccnc2)n1)c1nc2ccccc2s1 (stereo not given) (10 µM)
inactive: IRAK3 = 0 | JAK1 = 0 | LCK 0 | LIMK1 = 0 | LIMK2 = 0 | LMTK2 = 0 | LYN 0 | MAP2K1 = 0 | MAP2K2 = 0 | MAP4K2 = 0

Cc1ccc(Nc2cc(-c3cccc(N4C(=O)c5ccccc5C4=O)c3)ncn2)cc1NS(C)(=O)=O (10 µM)
inactive: IRAK3 = 0 | JAK1 = 0 | LCK 0 | LIMK1 = 0 | LIMK2 = 0 | LMTK2 = 0 | LYN 0 | MAP2K1 = 0 | MAP2K2 = 0 | MAP4K2 = 0

O=C(Nc1ccc2[nH]nc(-c3ccncc3)c2c1)[C@@H]1CCN(CC(=O)N2CCN(c3ccc(-c4ncccn4)cc3)CC2)C1 (2.5 µM)
inactive: IRAK3 = 0 | JAK1 = 0 | LCK 0 | LIMK1 = 0 | LIMK2 = 0 | LMTK2 = 0 | LYN 0 | MAP2K1 = 0 | MAP2K2 = 0 | MAP4K2 = 0

CCN1CCN(Cc2ccc(Nc3ncc(F)c(-c4cc(F)c5nc(CO)n(C(C)C)c5c4)n3)nc2)CC1 [Abemaciclib metabolite M20] (2 µM)
inactive: IRAK3 = 0 | JAK1 = 0 | LCK 0 | LIMK1 = 0 | LIMK2 = 0 | LMTK2 = 0 | LYN 0 | MAP2K1 = 0 | MAP2K2 = 0 | MAP4K2 = 0

At a glance, two of the compounds above:
Cc1ccc(Nc2cc(-c3cccc(N4C(=O)c5ccccc5C4=O)c3)ncn2)cc1NS(C)(=O)=O (10 µM)
inactive: IRAK3 = 0 | JAK1 = 0 | LCK 0 | LIMK1 = 0 | LIMK2 = 0 | LMTK2 = 0 | LYN 0 | MAP2K1 = 0 | MAP2K2 = 0 | MAP4K2 = 0

O=C(Nc1ccc2[nH]nc(-c3ccncc3)c2c1)[C@@H]1CCN(CC(=O)N2CCN(c3ccc(-c4ncccn4)cc3)CC2)C1 (2.5 µM)
inactive: IRAK3 = 0 | JAK1 = 0 | LCK 0 | LIMK1 = 0 | LIMK2 = 0 | LMTK2 = 0 | LYN 0 | MAP2K1 = 0 | MAP2K2 = 0 | MAP4K2 = 0

The listing continues:

C=C1C(=O)O[C@@H]2C[C@@]3(C)CCC[C@H](C)C3=C[C@H]12 [Alantolactone] (10 µM)
inactive: IRAK3 = 0 | JAK1 = 0 | LCK 0 | LIMK1 = 0 | LIMK2 = 0 | LMTK2 = 0 | LYN 0 | MAP2K1 = 0 | MAP2K2 = 0 | MAP4K2 = 0

CCc1cc(O)c(F)cc1-c1ccc2c(-c3nc4c([nH]3)CN(C3CCN(C)CC3)CC4)n[nH]c2c1 [JAK-IN-5 (hydrochloride)] (2 µM)
inactive: IRAK3 = 0 | JAK1 = 0 | LCK 0 | LIMK1 = 0 | LIMK2 = 0 | LMTK2 = 0 | LYN 0 | MAP2K1 = 0 | MAP2K2 = 0 | MAP4K2 = 0

C[C@@H](c1ccc2nccn2c1)n1nnc2ncc(-c3cnn(C)c3)nc21 [Savolitinib] (10 µM)
inactive: IRAK3 = 0 | JAK1 = 0 | LCK 0 | LIMK1 = 0 | LIMK2 = 0 | LMTK2 = 0 | LYN 0 | MAP2K1 = 0 | MAP2K2 = 0 | MAP4K2 = 0

COc1cc(F)c(F)c(Nc2ccc(I)cc2F)c1NS(=O)(=O)C1(C[C@H](O)CO)CC1 [Refametinib] (10 µM)
inactive: IRAK3 = 0 | JAK1 = 0 | LCK 0 | LIMK1 = 0 | LIMK2 = 0 | LMTK2 = 0 | LYN 0 | MAP2K1 = 0 | MAP2K2 = 0 | MAP4K2 = 0

Cc1cc(NC(=O)c2cccc(NC(=O)/C=C/CN(C)C)c2)ccc1Nc1nccc(-c2cccnc2)n1 (10 µM)
inactive: IRAK3 = 0 | JAK1 = 0 | LCK 0 | LIMK1 = 0 | LIMK2 = 0 | LMTK2 = 0 | LYN 0 | MAP2K1 = 0 | MAP2K2 = 0 | MAP4K2 = 0

Cn1c(=O)c(F)c(Nc2ccc(I)cc2F)c2c(=O)n(C[C@@H](O)CO)cnc21 (10 µM)
inactive: IRAK3 = 0 | JAK1 = 0 | LCK 0 | LIMK1 = 0 | LIMK2 = 0 | LMTK2 = 0 | LYN 0 | MAP2K1 = 0 | MAP2K2 = 0 | MAP4K2 = 0

CN(CCNc1ccc2ncc(-c3ccc(C(N)=O)cc3)n2n1)C(=O)OC(C)(C)C (10 µM)
inactive: IRAK3 = 0 | JAK1 = 0 | LCK 0 | LIMK1 = 0 | LIMK2 = 0 | LMTK2 = 0 | LYN 0 | MAP2K1 = 0 | MAP2K2 = 0 | MAP4K2 = 0

COc1cc2ncnc(Nc3cccc(Cl)c3)c2cc1OC (10 µM)
inactive: IRAK3 = 0 | JAK1 = 0 | LCK 0 | LIMK1 = 0 | LIMK2 = 0 | LMTK2 = 0 | LYN 0 | MAP2K1 = 0 | MAP2K2 = 0 | MAP4K2 = 0

CCN(CC)c1ccc2cc(C(=O)N3CCN(C(=O)C4=Cc5c(Br)cccc5S4(=O)=O)CC3)c(=O)oc2c1 (2 µM)
inactive: IRAK3 = 0 | JAK1 = 0 | LCK 0 | LIMK1 = 0 | LIMK2 = 0 | LMTK2 = 0 | LYN 0 | MAP2K1 = 0 | MAP2K2 = 0 | MAP4K2 = 0

O=c1oc2cc(O)ccc2c2ccccc12 [Urolithin B] (10 µM)
inactive: IRAK3 = 0 | JAK1 = 0 | LCK 0 | LIMK1 = 0 | LIMK2 = 0 | LMTK2 = 0 | LYN 0 | MAP2K1 = 0 | MAP2K2 = 0 | MAP4K2 = 0

c1cc2c(cc1O[C@H]1OC[C@H]3[C@@H]1CO[C@@H]3c1ccc3c(c1)OCO3)OCO2 [Sesamolin] (10 µM)
inactive: IRAK3 = 0 | JAK1 = 0 | LCK 0 | LIMK1 = 0 | LIMK2 = 0 | LMTK2 = 0 | LYN 0 | MAP2K1 = 0 | MAP2K2 = 0 | MAP4K2 = 0

CC(C)CN(CC(=O)N1CCN(CC(OCc2ccc3ccccc3c2)c2ccc(Cl)cc2Cl)CC1)CC(C)C (stereo not given) [LYN-1604 (dihydrochloride)] (2.5 µM)
inactive: IRAK3 = 0 | JAK1 = 0 | LCK 0 | LIMK1 = 0 | LIMK2 = 0 | LMTK2 = 0 | LYN 0 | MAP2K1 = 0 | MAP2K2 = 0 | MAP4K2 = 0

C#CCN(C)C(=O)CCNc1nc(N2CCN(C(=O)C=C)CC2)c2cc(Cl)c(-c3c(O)cccc3F)c(F)c2n1 [ARS-1323-alkyne] (2.5 µM)
inactive: IRAK3 = 0 | JAK1 = 0 | LCK 0 | LIMK1 = 0 | LIMK2 = 0 | LMTK2 = 0 | LYN 0 | MAP2K1 = 0 | MAP2K2 = 0 | MAP4K2 = 0

CN(CC(=O)N(Cc1ccc(C2CCCCC2)cc1)c1ccc(C(=O)O)cc1)S(=O)(=O)c1c(F)c(F)c(F)c(F)c1F (2.5 µM)
inactive: IRAK3 = 0 | JAK1 = 0 | LCK 0 | LIMK1 = 0 | LIMK2 = 0 | LMTK2 = 0 | LYN 0 | MAP2K1 = 0 | MAP2K2 = 0 | MAP4K2 = 0

Nc1ncnc2c1c(-c1ccc(Oc3ccccc3)cc1)nn2C1CCNCC1 [N-piperidine Ibrutinib (hydrochloride)] (10 µM)
inactive: IRAK3 = 0 | JAK1 = 0 | LCK 0 | LIMK1 = 0 | LIMK2 = 0 | LMTK2 = 0 | LYN 0 | MAP2K1 = 0 | MAP2K2 = 0 | MAP4K2 = 0

From the supplement of paper PMC12823440, “Inhibitors supercharge kinase turnover through native proteolytic circuits” (Nature, 2025)
